Test results: paper doi:10.1101/758714 (bioRxiv, 2019)
These are yes or no findings as the source states them, for the method shown. Some results given as binding are weak or reduced against the parent protein; the word gives no strength.

B1: human CRY1 tail (residues 492-586) (domain or fragment, UniProt Q16526 492-586, looked up)
chain: SRYRGLGLLASVPSNPNGNGGFMGYSAENIPGCSSSGSCSQGSGILHYAHGDSQQTHLLKQGRSSMGTGLSGGKRPSQEEDTQSIGPKVQRQSTN
modifications: fluorescein (FAM) on the N-terminus in the FP binding assays

How the values were obtained:
[1] = molecular target: T1, CRY1 photolyase homology region (PHR), residues 1-491 (human) (UniProt Q16526); test: fluorescence polarisation
T1 sequence: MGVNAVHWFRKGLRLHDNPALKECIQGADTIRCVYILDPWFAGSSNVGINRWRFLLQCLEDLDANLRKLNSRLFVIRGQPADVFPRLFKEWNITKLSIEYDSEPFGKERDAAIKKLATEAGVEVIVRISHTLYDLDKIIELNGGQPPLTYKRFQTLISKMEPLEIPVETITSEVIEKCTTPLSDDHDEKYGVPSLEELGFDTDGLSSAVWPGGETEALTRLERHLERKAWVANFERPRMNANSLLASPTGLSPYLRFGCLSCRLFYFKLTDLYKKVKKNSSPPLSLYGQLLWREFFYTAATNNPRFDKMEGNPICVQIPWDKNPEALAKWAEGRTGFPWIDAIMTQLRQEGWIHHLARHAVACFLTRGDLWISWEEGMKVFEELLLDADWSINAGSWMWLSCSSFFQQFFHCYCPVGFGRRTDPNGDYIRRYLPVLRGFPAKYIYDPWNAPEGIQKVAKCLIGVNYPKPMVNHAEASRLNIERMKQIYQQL

[2] = molecular target: T1, CRY1 photolyase homology region (PHR), residues 1-491 (human); test: fluorescence polarisation; remark: listed apart in the source
[3] = molecular target: T1, CRY1 photolyase homology region (PHR), residues 1-491 (human); test: NMR titration

Row | Molecule | binding [1] | binding [2] | binding [3]
1 | human CRY1 tail exons 10 and 11 (residues 496-554) (from UniProt Q16526 496-554) (domain or fragment) | binds |  | 
2 | B1 |  | binds | binds
